The results in this text go back to article PMC10405852.

Results are given in words; binding and its absence hold for the method and conditions named. Binding seen in cells or lysates may run through a third protein. A result given as binding can be weak or reduced; the word gives no strength.

For assay [1], the target named is GPX4 wild type, stably overexpressed in HepG2 cells (HepG2-GPX4). Nature of the assay: co-IP; IP from HepG2 cells stably expressing GPX4 WT, S2A, S40A, S45A or S112A; precipitating antibody not given.
Assay [2] has the same target. Nature of the assay: proximity ligation; Duolink in situ PLA on fixed, permeabilised HCC cells or HepG2 cells stably expressing GPX4 WT or mutants; anti-p53 or anti-B55β with anti-GPX4; cells untreated or treated with Sora (10 µM, 24 h).

B1: protein phosphatase 2A-B55β subunit (PP2A-B55β), endogenous in HCC cells (protein, UniProt Q00005 1-443)
chain: MEEDIDTRKINNSFLRDHSYATEADIISTVEFNHTGELLATGDKGGRVVIFQREQESKNQVHRRGEYNVYSTFQSHEPEFDYLKSLEIEEKINKIRWLPQQNAAYFLLSTNDKTVKLWKVSERDKRPEGYNLKDEEGRLRDPATITTLRVPVLRPMDLMVEATPRRVFANAHTYHINSISVNSDYETYMSADDLRINLWNFEITNQSFNIVDIKPANMEELTEVITAAEFHPHHCNTFVYSSSKGTIRLCDMRASALCDRHTKFFEEPEDPSNRSFFSEIISSISDVKFSHSGRYIMTRDYLTVKVWDLNMENRPIETYQVHDYLRSKLCSLYENDCIFDKFECVWNGSDSVIMTGSYNNFFRMFDRNTKRDVTLEASRENSKPRAILKPRKVCVGGKRRKDEISVDSLDFSKKILHTAWHPSENIIAVAATNNLYIFQDKVN
As for B1, the binding entry in assay [1] and in assay [2] was “binds” in each case.
